Measurements from patent publication US20230357411A1.

B1: humanized anti-TrkA monoclonal antibody H1L1-IgG4 (antibody)
heavy: EVQLLESGGGLVQPGGSLKLSCKASGYAFTNYWLGWMKQRPGHGLEWIGDFYPRTGNTFYNENFKGKVTLTADKSSNTAYMQLSSLTSEDSAVYLCARAGTGFDYWGQGTTLTVSSASTKGPSVFPLAPCSRSTSESTAALGCLVKDYFPEPVTVSWNSGALTSGVHTFPAVLQSSGLYSLSSVVTVPSSSLGTKTYTCNVDHKPSNTKVDKRVESKYGPPCPPCPAPEAAGGPSVFLFPPKPKDTLMISRTPEVTCVVVDVSQEDPEVQFNWYVDGVEVHNAKTKPREEQFNSTYRVVSVLTVLHQDWLNGKEYKCKVSNKGLPSSIEKTISKAKGQPREPQVYTLPPSQEEMTKNQVSLTCLVKGFYPSDIAVEWESNGQPENNYKTTPPVLDSDGSFFLYSKLTVDKSRWQEGNVFSCSVMHEALHNHYTQKSLSLSLG
light: EIVMTQSPATLSLSVGERVTLSCKASENVGGYVSWYQQKPDQSPKLLIYGASSRHTGVPDRFTGSGSETDFTLTISSVQAEDLAAYHCGQNYIYPFTFGGGTKLEIKRTVAAPSVFIFPPSDEQLKSGTASVVCLLNNFYPREAKVQWKVDNALQSGNSQESVTEQDSKDSTYSLSSTLTLSKADYEKHKVYACEVTHQGLSSPVTKSFNRGEC
B2: human-mouse chimeric anti-TrkA monoclonal antibody 23E12 (H0L0-IgG4) (antibody)
heavy: B1 heavy with E1Q, L5Q, E6Q, G9A, G10E, Q13R, G16T, L18V, L20I
light: B1 light with E1S, A9K, T10S, L11M, L13M
B3: humanized anti-TrkA monoclonal antibody H3L1-IgG4 (antibody, V domains shown)
VH: EVQLLESGGGLVQPGGSLKLSCKASGYAFTNYWLGWMKQRPGHGLEWIGDFYPRTGNTFYNENFKGQVTMSVDKSITTAYLQWNSLKASDTAMYYCARAGTGFDYWGQGTTLTVSS
VL: EIVMTQSPATLSLSVGERVTLSCKASENVGGYVSWYQQKPDQSPKLLIYGASSRHTGVPDRFTGSGSETDFTLTISSVQAEDLAAYHCGQNYIYPFTFGGGTKLEIKR
B4: humanized anti-TrkA monoclonal antibody H3L2-IgG4 (antibody, V domains shown)
VH: B3 VH
VL: B3 VL with H55A

biological target: TrKC; experiment: ELISA

| binding | Binder |
| --- | --- |
| no binding (tested: 20 µg/mL) | B1 |
| no binding (tested: 20 µg/mL) | B2 |
| no binding (tested: 20 µg/mL) | B3 |
| no binding (tested: 20 µg/mL) | B4 |

biological target: TrKB; experiment: ELISA

| binding | Binder |
| --- | --- |
| no binding (tested: 20 µg/mL) | B1 |
| no binding (tested: 20 µg/mL) | B2 |
| no binding (tested: 20 µg/mL) | B3 |
| no binding (tested: 20 µg/mL) | B4 |

biological target: P75 (low-affinity NGF receptor p75); experiment: ELISA

| binding | Binder |
| --- | --- |
| no binding (tested: 20 µg/mL) | B1 |
| no binding (tested: 20 µg/mL) | B2 |
| no binding (tested: 20 µg/mL) | B3 |
| no binding (tested: 20 µg/mL) | B4 |

Where a chain is given by its changes, count along the chain named. No constants are given. Whether binding was seen depends on the method and setting.
